Data reported in publication doi:10.1101/2020.10.07.329979.
Results are given in words; binding and its absence hold for the method and conditions named. In cells and extracts the contact can be indirect. Binding can be weak; no strength is given. Where a sequence is shown, tags or fusion partners need not be part of it.

Target: T1, FBN2 fused to the N-terminal half of YFP (Arabidopsis thaliana) (UniProt O82291)
T1 sequence: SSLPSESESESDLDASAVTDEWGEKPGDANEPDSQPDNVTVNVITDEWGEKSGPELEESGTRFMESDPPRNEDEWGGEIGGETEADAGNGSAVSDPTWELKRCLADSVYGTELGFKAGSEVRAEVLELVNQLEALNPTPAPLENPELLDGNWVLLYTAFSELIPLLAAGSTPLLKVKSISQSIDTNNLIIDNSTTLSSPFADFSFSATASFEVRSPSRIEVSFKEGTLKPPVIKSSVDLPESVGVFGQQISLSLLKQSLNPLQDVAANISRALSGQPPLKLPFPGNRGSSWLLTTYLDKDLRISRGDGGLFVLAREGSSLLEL
Experiment: split reporter

With “APE1 fused to the C-terminal moiety of CFP (from UniProt Q2HIR7)” the binding was “binds”.
